Our source for the Ki values is BindingDB's records for PubMed 2250662 (Glaxo Group Research, 1990).

The chains behind the UniProt entries cited, without tags or fusion partners.
UniProt P08483, whole entry: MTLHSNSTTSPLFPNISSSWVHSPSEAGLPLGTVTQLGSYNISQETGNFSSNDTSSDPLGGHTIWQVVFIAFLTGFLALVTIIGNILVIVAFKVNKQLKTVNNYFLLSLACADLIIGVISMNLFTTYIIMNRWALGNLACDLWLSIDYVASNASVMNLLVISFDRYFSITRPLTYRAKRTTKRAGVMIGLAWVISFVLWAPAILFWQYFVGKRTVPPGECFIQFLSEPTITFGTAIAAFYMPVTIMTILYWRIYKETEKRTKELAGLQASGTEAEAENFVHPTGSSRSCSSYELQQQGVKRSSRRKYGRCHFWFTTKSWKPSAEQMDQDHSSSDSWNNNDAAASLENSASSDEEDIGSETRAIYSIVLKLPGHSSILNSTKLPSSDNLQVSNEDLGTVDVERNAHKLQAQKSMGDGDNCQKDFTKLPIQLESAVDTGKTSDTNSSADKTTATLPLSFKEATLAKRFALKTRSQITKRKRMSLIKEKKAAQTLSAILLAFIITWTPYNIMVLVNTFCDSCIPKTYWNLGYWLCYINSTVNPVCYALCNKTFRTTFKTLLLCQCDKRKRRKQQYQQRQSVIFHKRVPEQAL

The target in assay [1] is T1, Muscarinic acetylcholine receptor M2 (Rattus norvegicus, UniProt P10980).
T1 sequence (P10980 whole entry): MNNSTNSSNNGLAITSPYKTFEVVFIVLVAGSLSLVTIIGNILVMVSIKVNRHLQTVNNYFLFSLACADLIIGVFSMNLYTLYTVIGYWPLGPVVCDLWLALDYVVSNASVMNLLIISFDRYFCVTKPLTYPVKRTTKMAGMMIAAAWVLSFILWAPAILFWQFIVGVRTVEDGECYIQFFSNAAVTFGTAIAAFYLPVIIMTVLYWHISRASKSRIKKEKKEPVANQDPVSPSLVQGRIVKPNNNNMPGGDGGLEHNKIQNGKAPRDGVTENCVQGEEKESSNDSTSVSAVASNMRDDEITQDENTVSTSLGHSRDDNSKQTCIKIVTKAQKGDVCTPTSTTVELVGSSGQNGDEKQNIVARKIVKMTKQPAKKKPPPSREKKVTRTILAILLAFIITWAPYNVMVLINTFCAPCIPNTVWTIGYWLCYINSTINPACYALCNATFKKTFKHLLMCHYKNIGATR

Assay [2] addresses Muscarinic acetylcholine receptor M3 (Rattus norvegicus, UniProt P08483).
The target of assay [3] is T2, Muscarinic acetylcholine receptor M4 (Gallus gallus, UniProt P17200).
T2 sequence (P17200 whole entry): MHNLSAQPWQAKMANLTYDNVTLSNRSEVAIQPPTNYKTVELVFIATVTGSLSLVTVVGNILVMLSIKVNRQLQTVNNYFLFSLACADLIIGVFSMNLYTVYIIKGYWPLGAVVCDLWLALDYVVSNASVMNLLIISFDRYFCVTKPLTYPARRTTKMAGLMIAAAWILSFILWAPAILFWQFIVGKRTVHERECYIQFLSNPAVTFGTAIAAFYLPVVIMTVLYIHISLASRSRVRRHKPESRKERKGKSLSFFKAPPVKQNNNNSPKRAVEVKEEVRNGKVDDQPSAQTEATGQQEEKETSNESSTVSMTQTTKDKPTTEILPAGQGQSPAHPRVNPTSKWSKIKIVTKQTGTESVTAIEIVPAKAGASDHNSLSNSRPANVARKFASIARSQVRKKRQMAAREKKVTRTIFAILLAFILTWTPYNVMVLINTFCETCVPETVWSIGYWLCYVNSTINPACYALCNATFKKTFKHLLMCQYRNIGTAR

Assay [4] concerns the target T3, Muscarinic acetylcholine receptor (Oryctolagus cuniculus, UniProt A0A5F9DUN4).
T3 sequence (A0A5F9DUN4 whole entry): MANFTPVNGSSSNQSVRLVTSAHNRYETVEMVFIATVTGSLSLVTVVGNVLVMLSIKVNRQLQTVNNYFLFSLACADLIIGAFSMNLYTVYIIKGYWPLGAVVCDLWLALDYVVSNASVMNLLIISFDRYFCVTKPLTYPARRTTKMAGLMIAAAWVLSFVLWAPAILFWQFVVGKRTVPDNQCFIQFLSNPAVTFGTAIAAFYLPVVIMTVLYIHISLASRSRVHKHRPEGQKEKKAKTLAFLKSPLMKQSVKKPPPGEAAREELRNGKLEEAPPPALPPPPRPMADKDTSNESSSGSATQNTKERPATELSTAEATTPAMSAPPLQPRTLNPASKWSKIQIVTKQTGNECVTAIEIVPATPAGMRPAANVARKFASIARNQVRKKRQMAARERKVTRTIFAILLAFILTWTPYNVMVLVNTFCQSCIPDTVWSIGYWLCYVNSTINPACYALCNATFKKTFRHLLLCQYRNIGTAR

pKi: −log10 of the molar value.

Turning to `CN1[C@@H]2CC[C@H]1CC(OC(=O)[C@H](O)c1ccccc1)C2` (some centres undefined) [CAS_87-00-3], the pKi in assay [1] was 6.78; in assay [2], 7.23; in assay [3] it was 7.14; in assay [4] it was 7.60.

The term pKi denotes the negative decadic logarithm of the Ki, by convention in mol/L. A lower pKi goes with a large Ki.
